For at least one compound, name, drawing or mass did not settle the structure.
Assays:
Type in all cases: in vivo
[1] = tested on: allergic bronchial asthma induction model (Balb/c female mice); experiment: Serum IgE and ovalbumin-specific IgE concentration (ELISA), OVA-induced allergic asthma model; conditions: vs OVA group; extract 50, 100, 200 mg/kg oral, dexamethasone 2.5 mg/kg oral; FIG. 10
[2] = tested on: allergic bronchial asthma induction model (Balb/c female mice); experiment: Periodic Acid-Schiff (PAS) staining of lung tissue, OVA-induced allergic asthma model; conditions: vs OVA group; extract 50, 100, 200 mg/kg oral, dexamethasone 2.5 mg/kg oral; FIG. 9
[3] = tested on: allergic bronchial asthma induction model (Balb/c female mice); experiment: Immune cell infiltration in lung, H&E staining, OVA-induced allergic asthma model; conditions: vs OVA group; extract 50, 100, 200 mg/kg oral, dexamethasone 2.5 mg/kg oral; FIG. 8
[4] = tested on: allergic bronchial asthma induction model (Balb/c female mice); experiment: Number of inflammatory cells in bronchoalveolar lavage fluid, OVA-induced allergic asthma model (Diff-Quick staining); conditions: vs OVA group; extract 50, 100, 200 mg/kg oral, dexamethasone 2.5 mg/kg oral, days 15 to 27; FIG. 6
[5] = tested on: allergic bronchial asthma induction model (Balb/c female mice); experiment: Inflammatory cells in bronchoalveolar lavage fluid by flow cytometry, OVA-induced allergic asthma model; conditions: vs OVA group, extract 50, 100, 200 mg/kg oral, dexamethasone 2.5 mg/kg oral

C[C@@H]1C[C@H]2[C@@H]3CCC4=CC(=O)C=C[C@]4(C)[C@@]3(F)[C@@H](O)C[C@]2(C)[C@@]1(O)C(=O)CO [dexamethasone]
concentration of ovalbumin-specific IgE antibodies in serum [1]: significantly decreased
infiltration of eosinophils / goblet cells in lung (PAS staining) [2]: significantly inhibited
infiltration of eosinophils in lung (H&E staining) [3]: significantly inhibited
eosinophil count in bronchoalveolar lavage fluid (Diff-Quick staining) [4]: significantly decreased
total inflammatory cell count in bronchoalveolar lavage fluid [4]: significantly decreased
eosinophil count in bronchoalveolar lavage fluid by flow cytometry ([5]; FIG. 7A): significantly decreased
dendritic cell numbers in bronchoalveolar lavage fluid by flow cytometry ([5]; FIG. 7B): significantly reduced
